Assay results taken from US20200377573A1.
Numbering of substitutions follows the chain as printed. Results are given in words; binding and its absence hold for the method and conditions named. A result given as binding can be weak or reduced; the word gives no strength. For part of these data: Binding seen in cells or lysates may run through a third protein.

B1: peptide H218 (designed binder)
chain: DPQFGLFSKYRTPNCLKSEGMACYAYYEPVCGSDMSTYANECTLCMKIREGGHNIKIIRNGPCGG
B2: peptide derivative H322AT_D1G_S16A (designed binder)
chain: B1 chain with D1G, L16A, K17Q, S18H, Y26L
B3: peptide H308 (designed binder)
chain: B1 chain with L16S, K17D, S18H, E19A, Y24V, Y26L, A39E, T43V
B4: peptide derivative H321AT (designed binder)
chain: B1 chain with L16S, K17D, S18F, E19D, Y26F
B5: peptide derivative H322AT (designed binder)
chain: B1 chain with L16S, K17Q, S18H, Y26L
B6: peptide derivative H308_D1G_S16A (designed binder)
chain: GPQFGLFSKYRTPNCADHAGMACVALYEPVCGSDMSTYENECVLCMKIREGGHNIKIIRNGPCGG
B7: peptide derivative H321AT_D1G_S16A (designed binder)
chain: B1 chain with D1G, L16A, K17D, S18F, E19D, Y26F

Columns and labels:
HTRA1 (cat) (human) [1] = assay: X-ray crystallography of the complex, 2.6 Angstrom
HTRA1 (cat) (human) [2] = assay: mixing and gel filtration chromatography (Superdex 200)
HTRA1 (cat) (human) [3] = assay: X-ray crystallography of the complex
HTRA1 (cat) (human) [4] = assay: immunoprecipitation method: pull-down of His tag-fused HTRA1 (cat) with TALON resin, SDS-PAGE

| Binder | binding (HTRA1 (cat) (human) [4]) | further results |
| --- | --- | --- |
| B1 | – | binding (HTRA1 (cat) (human) [1]): binds; binding (HTRA1 (cat) (human) [2]): binds; binding (HTRA1 (cat) (human) [3]): binds |
| B2 | binds | – |
| B3 | binds | – |
| B4 | binds | – |
| B5 | binds | – |
| B6 | binds | – |
| B7 | binds | – |
